Measurements reported in PubChem BioAssay AID924 (National Center for Advancing Translational Sciences (NCATS), 2007).
Most of the hits are listed elsewhere, so they are rarer here than in the full data. Results filed as inconclusive are left out. Calls of active or inactive are those of the source. The call rests on the fitted dose curve; in most records, active means well fitted cell-killing curve with a large enough effect; inconclusive means small, poorly fitted or top-dose-only effect; inactive means no such curve, though single readings can be large or run the other way.

Assay: qHTS Screen for Compounds that Selectively Target Cancer Cells with p53 Mutations: Cytotoxicity of p53ts Cells at the Permissive Temperature;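 further: 0% = DMSO and -100% = full killing by reference compound; nearly all actives have a fitted effect of over 55% in size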
Conditions: H1299-p53A138V at 32C, ATP luminescence viability, 24 h
Source text: NIH Chemical Genomics Center [NCGC] NIH Molecular Libraries Screening Centers Network [MLSCN] MLSCN Grant: 1 X01 MH079844-01 Assay Submitter (PI): Dr. SUN, YI, University of Michigan NCGC Assay Overview: Synthetic Lethal Screen for Compounds to Kill Cancer Cells with p53 Mutation. Tumor suppressor gene p53 serves as a major cellular barrier against tumorigenesis. […] The goal of this screening is to identify small molecule probes that selectively kill cancer cells with mutations in p53. This screening was carried out using two lines of H1299 lung cancer cells. The H1299-p53 A138V line express a temperature sensitive p53 mutant (p53ts) in which the mutant p53 protein (A138V) is in the mutant confirmation when grown at 39C (the nonpermissive temperature) and in the wild type conformation when grown at 32C (the permissive temperature). A H1299-neo line (p53 null) grown at both 39C and 32C were used as counter-screens to filter out false positive associated with temperature shifting. The small molecular compounds that selectively target mutant p53-containing cancer cells were selected as candidate probes for further study. A cytotoxicity assay based on the measurement of ATP contents in cells was used in this screen. Concentration-responses of all the compounds in the library collection were determined in qHTS using the cell lines and temperature conditions as above.
NCGC Assay Protocol Summary: Both the H1299-p53A138V and H1299-neo cell lines were provided by Dr.Yi Sun, a PI at the University Michigan. The cells were maintained and cultured at 37C. The resuspended frozen cells were used to plate the cells in the 1536-well assay plates at a density of 600 cells per well in 5 ul medium. The assay plates with the cells were incubated at 37C for 16 to 30 hours before the experiments. […] AC50 values were determined from concentration-response data modeled with the standard Hill equation. […] Detection; Luminescence; Viewlux plate reader Keywords: p53, synthetic lethal, cancer, cell viability, cytotoxicity, H1299 cell line, luminescence, MLSMR, MLSCN, NIH Roadmap, qHTS, NCGC

Measured: activity change, negative = cytotoxicity

COC(=O)C1=C(C)NC(C)=C(C(=O)OC)C1c1ccccc1[N+](=O)[O-]
inactive: at 1.84 µM (top of the series) 5.37% | at 20.6 µM (top of the series) 2.47% | at 46.1 µM (top of the series) 45.2%
